Measured values reported in the supplement of paper PMC3334620.
Over roughly 33,000 sequences, “E-score (-0.5 to 0.5)” has its median near -0.0034; the highest 2% begin near 0.25. The list shows a part of the results.

biological target: T1, Yap3 (UniProt P38749); test: PBM E-score (8-mer binding enrichment) (E-score (-0.5 to 0.5)); higher = stronger / more preferred TF binding; conditions: protein concentration: 100 nM; construct: GST-full length
T1 sequence: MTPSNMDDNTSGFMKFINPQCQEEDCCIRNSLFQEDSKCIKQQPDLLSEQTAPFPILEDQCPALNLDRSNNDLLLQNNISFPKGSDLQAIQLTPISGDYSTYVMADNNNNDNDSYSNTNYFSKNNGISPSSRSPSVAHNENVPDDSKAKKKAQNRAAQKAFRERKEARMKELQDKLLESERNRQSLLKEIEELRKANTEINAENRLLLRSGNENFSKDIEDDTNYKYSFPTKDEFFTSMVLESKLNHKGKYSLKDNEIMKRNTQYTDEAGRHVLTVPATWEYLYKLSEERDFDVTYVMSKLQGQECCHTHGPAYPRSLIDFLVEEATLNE
Experimental: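 Universal 'all 10-mer' protein binding microarrays (Agilent AMADID 015681) probed with GST-tagged S. cerevisiae TFs (full-length or DBD) made by in vitro transcription/translation (PURExpress), about 100-200 nM. Bound TF was detected with fluorescent anti-GST. Each ungapped 8-mer (which stands for itself and its reverse complement) is scored by the PBM enrichment score (E-score), a modified Wilcoxon-Mann-Whitney statistic from -0.5 to +0.5, computed with the Universal PBM Analysis Suite. Scale: above 0.35 generally sequence-specific binding.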

Sequence | PBM E-score
ACGACCTA | 0.0267
ACCTTCCA | -0.0266
AGGGCTTA | -0.303
AAATACAG | 0.17
GGACTCCC | -0.362
GATATGAC | 0.064
CGGACTCA | 0.0162
AATAACCC | 0.183
TAACAAGA | -0.00233
AATGTGGT | 0.114
CTGGGTCA | -0.167
TATAGATA | 0.0759
ATGGACTC | -0.147
ACCTATAC | 0.0526
ATTGTAAA | 0.237
ATTCAACG | 0.111
CGTGCCAA | -0.0894
CGTCACTC | -0.215
TCACGCAA | 0.164
AGGGGCTA | -0.193
CATGTGCG | 0.157
AAATAAAT | 0.241
AGTGGTGG | -0.112
CCCTGTTA | 0.134
GGCGGCAC | -0.00851

Sequence | PBM E-score
GAGCTGTA | -0.156
AACCAGAT | -0.072
CGGGTCTC | -0.262
CGGACCAA | 0.069
GGGAGTTA | -0.0452
AGACTAAC | 0.0822
ACCGTAAC | 0.0883
CCCTAAAC | -0.226
CGCGAGCA | 0.00461
ATAGAATG | 0.174
TGCTCGAA | 0.0154
GTTTCTGA | 0.0779
CCCTCATA | -0.0529
GGGGCAAC | -0.00422
GGCCTGCA | -0.267
ATACTTAG | 0.204
AGTTTTCG | 0.138
AAGCCCCC | -0.391
CTAAACGC | 0.183
GCATGGGC | -0.207
ATTTCTGA | 0.0463
TACCACCA | -0.0158
GACCGCGC | -0.163
ATTCGCTG | 0.0658
AACCGCTT | -0.0614

Quoted from the listing:
Under PBM E-score, AGGGGCTA is listed with -0.193
Under PBM E-score, AATAACCC is listed with 0.183
Under PBM E-score, AATGTGGT is listed with 0.114
Under PBM E-score, AACCAGAT is listed with -0.072
Under PBM E-score, TGCTCGAA is listed with 0.0154

(further entries)

Sequence | PBM E-score
ATCGGGAG | -0.102
CGAGAAAC | 0.0462
AAGCGGAC | -0.025
CTTCACAA | 0.0252
ACGGTGAC | -0.0735
ATCGACAC | -0.00776
CCACGCTC | -0.203
ACAATGAG | -0.052
ACCGGGGC | -0.242
CACGGTGG | -0.0347
GCGAAGTA | 0.0543
AAATCAGA | 0.104
ACATAAAA | 0.236
CCCCGGAA | -0.244
CAACCTGG | -0.074
CTGCCGAC | -0.136
GATAGTAC | 0.0905
ATCTTTCG | 0.0456
AACAGTGG | -0.00155
CCTACCCC | -0.242
CTGATAAG | 0.0958
ACACTTTA | 0.203
CAATTAGC | 0.085
CCGTCATA | 0.0469
ACAGACAT | -0.0462

3 entries picked at random from the list so far, as already listed:
Sequence | PBM E-score
CACGGTGG | -0.0347
CTGCCGAC | -0.136
CTTCACAA | 0.0252

Remaining list, next part

Sequence | PBM E-score
ACGTTTGC | -0.0339
ACCAATCA | 0.084
GTCTTTCA | -0.0208
AGGGCCCG | -0.216
TACCATGA | -0.0201
ATTCTCCA | 0.102
AGACGGGA | -0.171
ACTTGTCT | -0.0439
CCACGCCC | -0.274
CCCCCACA | -0.335
ACGTCGAT | 0.0972
ACTAACTC | -0.0293
TAGAACCA | 0.139
AAGGAAGC | -0.0757
GTAGCAGA | 0.00544
CCCCCAAC | -0.237
ACCCCGCG | -0.126
ATCGGACC | -0.0925
GACGCCAC | -0.143
ACGCTAAC | -0.0501
GCGACCGC | -0.0989
ATGCCGGC | -0.127
GTGCTGGA | -0.222
GAGGTTTA | 0.0474
GTAATAAC | 0.188

Sequence | PBM E-score
CAGGCACA | -0.29
CTAGATGA | -0.0244
AGAGGTGC | -0.146
CCTGTGGA | -0.317
GCAAGATA | 0.175
AACTGTCT | -0.0473
CCGTTTAG | 0.0753
ATGGTGGA | -0.062
CCTCAAAG | -0.132
AGCAGTGA | 0.0385
AGGGTCGA | -0.0328
GCTGGTCA | -0.0384
ATATGCAG | -0.0467
GCCCTTCC | -0.229
CAATTTGC | 0.0541
AAGCGTTA | 0.00957
ATTTAGAG | 0.178
ACCTCAGT | -0.0356
AGTGAGTC | -0.086
ATCTCTCA | 0.15
GCTGGGAA | -0.0385
TAAGTGTA | 0.0753
TTAGCCAA | 0.0775
TAACAGAA | 0.162
CGCACCCC | -0.263

Sequence | PBM E-score
ACTGCGGC | -0.153
CGTAACGA | 0.105
CGTTCGCA | -0.0138
CCGGGTAG | -0.0953
CGACCCCG | -0.385
CGCTTAAA | 0.102
CATTTTGA | 0.073
GAGGCTCA | -0.346
AAATATAG | 0.117
GCATACAC | 0.0279
AGACTACG | -0.313
CTCCCAGC | -0.119
CCTTTATC | -0.104
ATTATTCA | 0.277
TAAGGATA | 0.0931
AATTCAGG | 0.136
CGCGTGGC | -0.0879
CTCACAAA | 0.0597
CACAACTA | 0.262
ATGGTTGA | 0.0884
ACGGCCAC | -0.0645
GTGTGAGA | 0.00821
AATCTACG | -0.153
AATCAATG | 0.2
GGTGCTAA | 0.0102

Sequence | PBM E-score
CAGTGTAC | 0.0413
TAACAATA | 0.248
CGGTTGCC | 0.00793
TATCTTCA | 0.0961
CGGAATAG | 0.0606
CACAAGCG | -0.0853
GCTCCTGA | -0.173
AATGTTAG | 0.0701
CGCAGGGC | -0.133
ACTGGAAT | 0.115
GAGAGAAC | -0.0326
TCAAAGAA | -0.0713
CAGATATG | 0.0697
ATTCTAGC | -0.00162
CATAATAC | 0.24
GTGGGTTA | -0.00831
GAAGGGTA | -0.0722
GCCATGCC | -0.0454
GCATTGGA | 0.0411
ATACTAAT | 0.143
GGACGAAA | 0.048
AAGCGCCG | -0.0406
